Values from PubChem BioAssay AID504784 (Drosophila RNAi Screening Center, 2011).
Screen: 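Search for regulators of lipid droplet storage in oleate-fed fly cells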 (primary screen). Cell system: Drosophila Kc167 embryonic cells. Reagent: long dsRNA against Drosophila genes, about 250 ng dsRNA per well. Timing: 4 days. Conditions: cells fed 400 µM oleic acid bound to BSA. Read-out: 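Microscope images give a droplet-to-nucleus area ratio, taken as log and converted to a screen-wide B-score; higher values mean greater lipid storage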. Scale: droplet/nuclear area B-score: higher = more stored lipid (overstorage).
The screen tested about 17,000 reagents; below is a random part of those with a known target gene and a result. 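Each column is one replicate's B-score; the combined score over replicates was not deposited, so single values may mislead.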 Reagents against one gene are numbered here. A plus sign joins genes that one reagent is predicted to hit. No sequences are given here.

CG18190 | droplet/nuclear area B-score, replicate 1 = -0.605
CG8135 + BBIP1 #1 | droplet/nuclear area B-score, replicate 1 = 2.69; droplet/nuclear area B-score, replicate 2 = 1.49
CG8135 + BBIP1 #2 | droplet/nuclear area B-score, replicate 1 = -0.719; droplet/nuclear area B-score, replicate 2 = -1.26
SkpD | droplet/nuclear area B-score, replicate 1 = -0.0758; droplet/nuclear area B-score, replicate 2 = -0.31
FASN1 | droplet/nuclear area B-score, replicate 1 = -0.136; droplet/nuclear area B-score, replicate 2 = -1.44
Chd1 | droplet/nuclear area B-score, replicate 1 = 0.342; droplet/nuclear area B-score, replicate 2 = 0.231
CG32459 | droplet/nuclear area B-score, replicate 1 = -0.484; droplet/nuclear area B-score, replicate 2 = 0.779
aurA | droplet/nuclear area B-score, replicate 1 = 2.26; droplet/nuclear area B-score, replicate 2 = 1.52
CG33308 | droplet/nuclear area B-score, replicate 1 = 2.17; droplet/nuclear area B-score, replicate 2 = 2.1
SMC3 | droplet/nuclear area B-score, replicate 1 = 0.00481; droplet/nuclear area B-score, replicate 2 = -0.0628
Ir52a | droplet/nuclear area B-score, replicate 1 = -0.548; droplet/nuclear area B-score, replicate 2 = -0.389
CG6357 | droplet/nuclear area B-score, replicate 1 = -2.62; droplet/nuclear area B-score, replicate 2 = -0.606
CG10332 (retired record) + IM18 | droplet/nuclear area B-score, replicate 1 = 0.824; droplet/nuclear area B-score, replicate 2 = -0.813
Tektin-A | droplet/nuclear area B-score, replicate 1 = -0.0018; droplet/nuclear area B-score, replicate 2 = 0.0673
CG17782 #1 | droplet/nuclear area B-score, replicate 1 = -0.529; droplet/nuclear area B-score, replicate 2 = -0.693
CG17782 #2 | droplet/nuclear area B-score, replicate 1 = 1.17; droplet/nuclear area B-score, replicate 2 = 0.434
Dro | droplet/nuclear area B-score, replicate 1 = -0.319
CG14907 + Mettl4 #1 | droplet/nuclear area B-score, replicate 1 = -1.16; droplet/nuclear area B-score, replicate 2 = 0.00648
CG14907 + Mettl4 #2 | droplet/nuclear area B-score, replicate 1 = 0.149; droplet/nuclear area B-score, replicate 2 = -0.312
RpLP0-like | droplet/nuclear area B-score, replicate 1 = -0.273; droplet/nuclear area B-score, replicate 2 = 1.29
CG8191 | droplet/nuclear area B-score, replicate 1 = 1.29; droplet/nuclear area B-score, replicate 2 = 0.326
CG13720 | droplet/nuclear area B-score, replicate 1 = -0.723; droplet/nuclear area B-score, replicate 2 = -0.343
MED10 | droplet/nuclear area B-score, replicate 1 = -0.00065; droplet/nuclear area B-score, replicate 2 = 0.239
Tti1 | droplet/nuclear area B-score, replicate 1 = 2.7; droplet/nuclear area B-score, replicate 2 = 0.00449
AspRS-m | droplet/nuclear area B-score, replicate 1 = 1.04; droplet/nuclear area B-score, replicate 2 = -0.000502
Bdbt | droplet/nuclear area B-score, replicate 1 = 0.69; droplet/nuclear area B-score, replicate 2 = 0.299
CG14042 + SP555 #1 | droplet/nuclear area B-score, replicate 1 = 2.6; droplet/nuclear area B-score, replicate 2 = 0.075
CG14042 + SP555 #2 | droplet/nuclear area B-score, replicate 1 = -0.0527; droplet/nuclear area B-score, replicate 2 = 0.0579

4 entries from above, limited to “droplet/nuclear area B-score, replicate 2”:
Chd1 = 0.231
CG32459 = 0.779
aurA = 1.52
CG33308 = 2.1
